± gives the standard deviation of the averaged measurements. This is a selection; strong and weak results do not stand in their true shares. Small differences around the control level are noise.

Sequences of proteins named here, by UniProt entry; tags and fusion partners are left off. A change or cut given only in a name is not applied to a line headed by its entry.
UniProt Q9BYW2: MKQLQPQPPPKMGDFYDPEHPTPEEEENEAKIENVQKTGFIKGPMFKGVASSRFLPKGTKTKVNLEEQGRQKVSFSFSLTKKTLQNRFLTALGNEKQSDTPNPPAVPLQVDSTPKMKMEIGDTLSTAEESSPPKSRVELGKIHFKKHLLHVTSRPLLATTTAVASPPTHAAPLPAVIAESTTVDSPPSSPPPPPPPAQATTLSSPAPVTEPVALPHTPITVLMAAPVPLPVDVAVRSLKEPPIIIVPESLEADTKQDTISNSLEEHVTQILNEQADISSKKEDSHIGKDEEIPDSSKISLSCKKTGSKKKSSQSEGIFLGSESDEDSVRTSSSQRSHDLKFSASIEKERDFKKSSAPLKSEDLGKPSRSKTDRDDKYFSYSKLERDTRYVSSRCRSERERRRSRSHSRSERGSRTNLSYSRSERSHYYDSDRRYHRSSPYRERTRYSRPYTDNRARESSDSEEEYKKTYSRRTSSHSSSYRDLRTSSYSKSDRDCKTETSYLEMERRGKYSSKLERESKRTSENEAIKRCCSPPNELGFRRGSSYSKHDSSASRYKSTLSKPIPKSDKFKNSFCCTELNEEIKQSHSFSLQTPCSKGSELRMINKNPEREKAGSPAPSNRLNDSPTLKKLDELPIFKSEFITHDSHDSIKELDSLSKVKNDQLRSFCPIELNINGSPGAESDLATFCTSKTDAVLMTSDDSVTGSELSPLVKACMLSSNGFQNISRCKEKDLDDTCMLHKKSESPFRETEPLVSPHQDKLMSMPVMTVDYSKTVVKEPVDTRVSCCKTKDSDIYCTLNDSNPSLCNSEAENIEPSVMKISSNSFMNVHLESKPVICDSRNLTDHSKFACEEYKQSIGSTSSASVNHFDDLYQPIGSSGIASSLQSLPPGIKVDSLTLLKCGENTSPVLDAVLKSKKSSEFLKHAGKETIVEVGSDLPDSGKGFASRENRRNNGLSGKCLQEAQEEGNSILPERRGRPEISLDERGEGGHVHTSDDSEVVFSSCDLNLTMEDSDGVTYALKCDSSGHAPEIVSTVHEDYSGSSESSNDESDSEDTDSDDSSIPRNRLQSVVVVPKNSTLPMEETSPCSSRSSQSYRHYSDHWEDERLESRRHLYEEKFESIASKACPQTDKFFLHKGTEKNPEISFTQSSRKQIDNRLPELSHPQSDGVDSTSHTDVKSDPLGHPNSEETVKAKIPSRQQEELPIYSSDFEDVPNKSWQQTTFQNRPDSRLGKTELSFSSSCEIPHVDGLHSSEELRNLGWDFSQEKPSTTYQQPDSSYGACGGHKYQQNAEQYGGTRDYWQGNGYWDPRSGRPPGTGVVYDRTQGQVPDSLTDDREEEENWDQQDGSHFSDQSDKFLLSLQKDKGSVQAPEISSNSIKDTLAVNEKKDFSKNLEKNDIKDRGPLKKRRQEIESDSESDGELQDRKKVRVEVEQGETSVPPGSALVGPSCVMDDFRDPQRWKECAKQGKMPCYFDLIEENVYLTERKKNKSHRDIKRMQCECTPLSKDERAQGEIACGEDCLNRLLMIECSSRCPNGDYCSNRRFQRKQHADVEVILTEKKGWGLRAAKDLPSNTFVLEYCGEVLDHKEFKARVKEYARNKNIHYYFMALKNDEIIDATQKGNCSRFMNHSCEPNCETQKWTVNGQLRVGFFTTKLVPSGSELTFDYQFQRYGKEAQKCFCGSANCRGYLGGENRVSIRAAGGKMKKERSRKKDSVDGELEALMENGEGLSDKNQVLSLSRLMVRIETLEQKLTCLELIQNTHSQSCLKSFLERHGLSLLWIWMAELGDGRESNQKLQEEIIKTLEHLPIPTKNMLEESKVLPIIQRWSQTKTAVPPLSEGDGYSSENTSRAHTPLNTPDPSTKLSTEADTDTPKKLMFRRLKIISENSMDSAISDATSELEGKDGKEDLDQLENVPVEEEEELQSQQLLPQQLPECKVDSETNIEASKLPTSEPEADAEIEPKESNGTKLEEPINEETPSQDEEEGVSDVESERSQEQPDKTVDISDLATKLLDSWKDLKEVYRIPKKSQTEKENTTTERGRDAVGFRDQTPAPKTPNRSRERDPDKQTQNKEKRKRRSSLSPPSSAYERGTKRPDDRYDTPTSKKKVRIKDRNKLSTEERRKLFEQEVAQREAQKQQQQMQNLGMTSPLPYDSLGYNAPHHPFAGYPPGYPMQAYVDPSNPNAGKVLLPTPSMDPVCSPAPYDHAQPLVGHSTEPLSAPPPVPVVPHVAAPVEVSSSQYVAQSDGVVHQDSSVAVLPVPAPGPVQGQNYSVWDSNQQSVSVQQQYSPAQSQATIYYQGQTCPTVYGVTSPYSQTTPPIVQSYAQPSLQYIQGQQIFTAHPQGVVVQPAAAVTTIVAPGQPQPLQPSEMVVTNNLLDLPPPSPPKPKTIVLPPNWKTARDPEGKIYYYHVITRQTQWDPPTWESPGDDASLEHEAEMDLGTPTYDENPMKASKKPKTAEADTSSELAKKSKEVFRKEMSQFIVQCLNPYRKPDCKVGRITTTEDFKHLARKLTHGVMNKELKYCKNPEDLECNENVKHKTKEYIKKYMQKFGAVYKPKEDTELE
UniProt Q9BQI3, whole entry: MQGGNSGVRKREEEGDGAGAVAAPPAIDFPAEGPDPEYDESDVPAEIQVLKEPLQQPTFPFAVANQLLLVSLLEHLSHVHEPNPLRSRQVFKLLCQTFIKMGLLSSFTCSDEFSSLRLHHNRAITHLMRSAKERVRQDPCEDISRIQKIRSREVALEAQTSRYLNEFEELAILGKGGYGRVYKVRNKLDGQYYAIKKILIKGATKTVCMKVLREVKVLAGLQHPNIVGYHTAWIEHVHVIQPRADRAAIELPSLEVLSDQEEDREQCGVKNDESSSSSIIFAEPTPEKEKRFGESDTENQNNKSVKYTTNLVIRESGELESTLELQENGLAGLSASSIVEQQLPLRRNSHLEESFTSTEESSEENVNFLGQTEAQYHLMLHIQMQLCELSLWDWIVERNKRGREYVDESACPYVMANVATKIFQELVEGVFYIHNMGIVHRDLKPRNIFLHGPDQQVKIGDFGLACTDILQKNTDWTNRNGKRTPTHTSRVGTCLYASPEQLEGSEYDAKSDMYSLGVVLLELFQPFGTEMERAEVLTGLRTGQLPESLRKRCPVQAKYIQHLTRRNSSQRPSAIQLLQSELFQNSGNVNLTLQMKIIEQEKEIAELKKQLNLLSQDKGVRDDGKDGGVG
UniProt Q99747: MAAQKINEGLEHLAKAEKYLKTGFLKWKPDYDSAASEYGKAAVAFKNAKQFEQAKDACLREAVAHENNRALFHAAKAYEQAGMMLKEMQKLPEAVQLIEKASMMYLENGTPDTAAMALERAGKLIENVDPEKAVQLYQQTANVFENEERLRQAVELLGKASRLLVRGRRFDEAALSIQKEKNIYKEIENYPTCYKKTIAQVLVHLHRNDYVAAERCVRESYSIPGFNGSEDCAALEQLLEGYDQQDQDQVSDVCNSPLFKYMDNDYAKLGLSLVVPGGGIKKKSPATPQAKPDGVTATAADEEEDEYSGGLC
UniProt Q9BRK5: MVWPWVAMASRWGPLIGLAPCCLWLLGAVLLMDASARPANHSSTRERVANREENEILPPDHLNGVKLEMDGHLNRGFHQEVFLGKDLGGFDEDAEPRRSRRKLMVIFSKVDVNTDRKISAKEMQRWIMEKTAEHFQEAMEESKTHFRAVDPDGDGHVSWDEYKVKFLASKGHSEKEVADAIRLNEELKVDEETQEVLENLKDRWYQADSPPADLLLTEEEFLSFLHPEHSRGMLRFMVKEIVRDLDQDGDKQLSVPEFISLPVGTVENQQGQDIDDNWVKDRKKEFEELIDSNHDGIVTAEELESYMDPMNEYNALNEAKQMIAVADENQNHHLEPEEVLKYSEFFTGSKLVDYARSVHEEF
UniProt Q9BYJ9: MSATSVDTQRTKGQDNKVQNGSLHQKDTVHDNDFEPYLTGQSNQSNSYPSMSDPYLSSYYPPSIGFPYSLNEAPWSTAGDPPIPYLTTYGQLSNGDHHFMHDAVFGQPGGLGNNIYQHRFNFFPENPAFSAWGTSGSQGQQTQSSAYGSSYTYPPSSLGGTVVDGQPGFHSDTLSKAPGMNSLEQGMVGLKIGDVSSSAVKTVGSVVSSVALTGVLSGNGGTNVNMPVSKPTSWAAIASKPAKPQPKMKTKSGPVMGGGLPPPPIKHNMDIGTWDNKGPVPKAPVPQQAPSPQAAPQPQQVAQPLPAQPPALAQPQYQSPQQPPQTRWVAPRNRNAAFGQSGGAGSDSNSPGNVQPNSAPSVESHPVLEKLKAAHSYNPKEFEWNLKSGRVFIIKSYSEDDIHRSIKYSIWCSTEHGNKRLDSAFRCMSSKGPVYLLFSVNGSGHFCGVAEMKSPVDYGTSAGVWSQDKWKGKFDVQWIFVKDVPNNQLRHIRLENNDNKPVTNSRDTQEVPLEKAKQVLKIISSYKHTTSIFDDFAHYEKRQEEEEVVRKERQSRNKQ
UniProt Q9BVQ7: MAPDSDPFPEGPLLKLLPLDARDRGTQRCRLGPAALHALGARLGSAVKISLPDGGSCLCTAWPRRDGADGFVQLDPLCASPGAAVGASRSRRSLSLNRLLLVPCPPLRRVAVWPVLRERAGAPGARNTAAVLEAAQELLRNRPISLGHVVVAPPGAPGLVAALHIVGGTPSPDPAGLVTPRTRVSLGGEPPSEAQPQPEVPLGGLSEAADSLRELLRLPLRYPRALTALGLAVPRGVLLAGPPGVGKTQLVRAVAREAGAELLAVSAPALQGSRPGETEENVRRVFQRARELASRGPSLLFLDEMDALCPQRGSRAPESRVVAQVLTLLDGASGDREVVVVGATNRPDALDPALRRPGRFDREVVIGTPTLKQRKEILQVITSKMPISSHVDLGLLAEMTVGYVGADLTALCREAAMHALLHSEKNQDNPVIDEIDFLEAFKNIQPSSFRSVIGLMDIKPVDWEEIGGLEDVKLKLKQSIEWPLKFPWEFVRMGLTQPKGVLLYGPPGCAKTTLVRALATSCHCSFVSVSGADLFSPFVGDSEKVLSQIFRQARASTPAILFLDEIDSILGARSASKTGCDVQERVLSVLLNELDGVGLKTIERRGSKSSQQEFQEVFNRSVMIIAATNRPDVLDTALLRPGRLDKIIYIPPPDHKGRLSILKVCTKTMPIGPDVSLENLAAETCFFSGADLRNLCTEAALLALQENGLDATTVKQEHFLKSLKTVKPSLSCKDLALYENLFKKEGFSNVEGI
UniProt Q99704: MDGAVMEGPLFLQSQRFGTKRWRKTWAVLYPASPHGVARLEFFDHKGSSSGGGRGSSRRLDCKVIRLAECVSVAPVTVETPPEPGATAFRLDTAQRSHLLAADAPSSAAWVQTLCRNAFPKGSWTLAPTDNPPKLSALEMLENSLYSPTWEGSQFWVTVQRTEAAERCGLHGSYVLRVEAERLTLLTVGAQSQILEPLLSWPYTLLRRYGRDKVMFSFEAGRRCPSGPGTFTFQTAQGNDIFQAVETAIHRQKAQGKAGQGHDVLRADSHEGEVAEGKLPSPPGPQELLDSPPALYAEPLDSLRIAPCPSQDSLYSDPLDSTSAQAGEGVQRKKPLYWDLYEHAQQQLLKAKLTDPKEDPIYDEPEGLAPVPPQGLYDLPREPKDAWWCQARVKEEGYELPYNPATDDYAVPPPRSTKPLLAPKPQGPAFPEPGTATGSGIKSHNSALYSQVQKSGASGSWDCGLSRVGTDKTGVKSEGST
UniProt Q9BXK1: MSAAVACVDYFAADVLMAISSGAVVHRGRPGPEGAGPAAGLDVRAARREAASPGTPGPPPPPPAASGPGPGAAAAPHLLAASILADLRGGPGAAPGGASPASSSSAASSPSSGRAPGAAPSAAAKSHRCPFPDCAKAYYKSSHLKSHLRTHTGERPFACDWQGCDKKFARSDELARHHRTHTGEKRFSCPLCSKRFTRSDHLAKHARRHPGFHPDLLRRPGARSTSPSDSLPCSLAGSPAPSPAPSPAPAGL
UniProt Q9BSD7: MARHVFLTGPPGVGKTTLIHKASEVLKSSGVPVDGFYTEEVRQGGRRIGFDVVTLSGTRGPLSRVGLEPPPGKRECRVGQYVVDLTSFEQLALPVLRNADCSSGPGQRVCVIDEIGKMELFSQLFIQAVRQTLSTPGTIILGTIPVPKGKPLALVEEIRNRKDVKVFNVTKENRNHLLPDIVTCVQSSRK
UniProt Q9BW62: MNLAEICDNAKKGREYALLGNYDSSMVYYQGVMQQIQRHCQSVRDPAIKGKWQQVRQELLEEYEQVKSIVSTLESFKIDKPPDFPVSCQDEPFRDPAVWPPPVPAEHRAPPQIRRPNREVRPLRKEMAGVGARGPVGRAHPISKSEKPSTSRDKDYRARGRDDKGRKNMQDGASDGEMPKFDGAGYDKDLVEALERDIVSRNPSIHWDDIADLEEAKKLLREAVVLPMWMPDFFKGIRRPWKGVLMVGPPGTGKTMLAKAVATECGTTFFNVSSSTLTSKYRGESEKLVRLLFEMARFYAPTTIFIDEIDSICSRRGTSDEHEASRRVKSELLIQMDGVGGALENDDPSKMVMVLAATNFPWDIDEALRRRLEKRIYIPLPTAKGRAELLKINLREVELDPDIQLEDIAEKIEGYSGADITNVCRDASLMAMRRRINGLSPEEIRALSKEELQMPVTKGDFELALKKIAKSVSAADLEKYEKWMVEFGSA

Compound in one test: Nc1ncnc2c1ncn2[C@@H]1O[C@H](COP(=O)(O)OP(=O)(O)NP(=O)(O)O)[C@@H](O)[C@H]1O [adenylyl imidodiphosphate]
Kind of test: NP40-soluble protein abundance relative to vehicle (solubility fold change) (ratio); higher = more soluble protein in presence of AMP-PNP. The conditions noted are these: concentration: 0.1mM. An outline of the steps:
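Eight concentrations, 0.1 to 10 mM, were tested on Jurkat crude lysate for 10 min at room temperature and then 3 min at 37 °C, in three independent experiments. The lysate was solubilised with 0.8% NP40 and benzonase, ultracentrifuged, and the supernatant TMT-labelled for LC-MS/MS. Each value is the fold change against the detergent-processed vehicle in its own replicate, from vsn-normalised intensities.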
For SETD2 (UniProt Q9BYW2), the NP40-soluble protein abundance worked out at 1.02 ± 0.018.

With SRXN1 (UniProt Q9BYN0), the NP40-soluble protein abundance came to 1.05 ± 0.036.

With UniProt Q9BQI3 and related entries, the NP40-soluble protein abundance was found to be 1.012 ± 0.003.

For DNAJC2 (UniProt Q99543), the NP40-soluble protein abundance worked out at 1.01 ± 0.031.

As to UniProt Q99623, the NP40-soluble protein abundance came to 0.998 ± 0.026.

Regarding RPAP1 (UniProt Q9BWH6), the NP40-soluble protein abundance was 1.03 ± 0.044.

On to NAPG (UniProt Q99747), for which the NP40-soluble protein abundance worked out at 0.987 ± 0.029.

Turning to SDF4 (UniProt Q9BRK5), the NP40-soluble protein abundance was determined as 0.969 ± 0.016.

UniProt Q9BUJ2 and related entries: the NP40-soluble protein abundance came to 1.03 ± 0.026.

In the case of MED18 (UniProt Q9BUE0), the NP40-soluble protein abundance was 0.981 ± 0.057.

COPS4 (UniProt Q9BT78): the NP40-soluble protein abundance was determined as 1 ± 0.085.

DCUN1D5 (UniProt Q9BTE7): the NP40-soluble protein abundance came to 0.992 ± 0.012.

For the target UIMC1 (UniProt Q96RL1), the NP40-soluble protein abundance was 0.992 ± 0.035.

In the case of UniProt Q96RR4 and related entries, the NP40-soluble protein abundance was found to be 0.988 ± 0.019.

With GRWD1 (UniProt Q9BQ67), the NP40-soluble protein abundance was determined as 1.05 ± 0.045.

For PECR (UniProt Q9BY49), the NP40-soluble protein abundance is 1.01 ± 0.014.

Regarding YTHDF1 (UniProt Q9BYJ9), the NP40-soluble protein abundance worked out at 1 ± 0.022.

For UniProt Q99729-3, the NP40-soluble protein abundance amounted to 0.959 ± 0.068.

Turning to UniProt Q99829 and related entries, the NP40-soluble protein abundance amounted to 1.02 ± 0.036.

As to SPATA5L1 (UniProt Q9BVQ7), the NP40-soluble protein abundance worked out at 1.022 ± 0.0079.

For DOK1 (UniProt Q99704), the NP40-soluble protein abundance came to 1.02 ± 0.021.

For UniProt Q9BX40 and related entries, the NP40-soluble protein abundance was found to be 1.01 ± 0.038.

QTRT1 (UniProt Q9BXR0): the NP40-soluble protein abundance came out at 1.04 ± 0.029.

On to GNB1L (UniProt Q9BYB4), for which the NP40-soluble protein abundance came to 0.985 ± 0.013.

As for UniProt Q96ST2 and related entries, the NP40-soluble protein abundance turned out to be 0.98 ± 0.055.

For the target KLF16 (UniProt Q9BXK1), the NP40-soluble protein abundance was determined as 1.01 ± 0.033.

UniProt Q9BU76 and related entries: the NP40-soluble protein abundance was determined as 0.998 ± 0.042.

As to UniProt Q9BSD7, the NP40-soluble protein abundance was found to be 1.05 ± 0.069.

Turning to PCGF6 (UniProt Q9BYE7), the NP40-soluble protein abundance worked out at 0.992 ± 0.034.

For TP53RK (UniProt Q96S44), the NP40-soluble protein abundance is 0.976 ± 0.056.

In the case of UniProt Q96TA2 and related entries, the NP40-soluble protein abundance was 1.01 ± 0.022.

Turning to MRPL32 (UniProt Q9BYC8), the NP40-soluble protein abundance is 0.994 ± 0.01.

Turning to UniProt Q9BRX8 and related entries, the NP40-soluble protein abundance came out at 1.06 ± 0.035.

On to UniProt Q9BY77 and related entries, for which the NP40-soluble protein abundance worked out at 0.981 ± 0.03.

As for ADO (UniProt Q96SZ5), the NP40-soluble protein abundance came out at 0.978 ± 0.038.

On to KATNAL1 (UniProt Q9BW62), for which the NP40-soluble protein abundance is 1 ± 0.061.

UniProt Q9BQS8 and related entries: the NP40-soluble protein abundance turned out to be 0.977 ± 0.054.

The test is the same for the next values; noted with them: concentration: 0.5mM.
For SETD2 (UniProt Q9BYW2), the NP40-soluble protein abundance is 0.995 ± 0.032.

Take SRXN1 (UniProt Q9BYN0): the NP40-soluble protein abundance amounted to 1.04 ± 0.022.

Consider UniProt Q9BQI3 and related entries, for which the NP40-soluble protein abundance was found to be 0.992 ± 0.021.

Turning to DNAJC2 (UniProt Q99543), the NP40-soluble protein abundance is 0.97 ± 0.041.

UniProt Q99623: the NP40-soluble protein abundance stood at 1.01 ± 0.023.

In the case of RPAP1 (UniProt Q9BWH6), the NP40-soluble protein abundance is 1.03 ± 0.032.

Regarding NAPG (UniProt Q99747), the NP40-soluble protein abundance was found to be 1.01 ± 0.029.

SDF4 (UniProt Q9BRK5): the NP40-soluble protein abundance came out at 0.968 ± 0.031.

Consider UniProt Q9BUJ2 and related entries, for which the NP40-soluble protein abundance came to 1.02 ± 0.049.

As to MED18 (UniProt Q9BUE0), the NP40-soluble protein abundance is 0.973 ± 0.064.

Regarding COPS4 (UniProt Q9BT78), the NP40-soluble protein abundance is 0.969 ± 0.069.

On to DCUN1D5 (UniProt Q9BTE7), for which the NP40-soluble protein abundance was 0.978 ± 0.041.

UIMC1 (UniProt Q96RL1): the NP40-soluble protein abundance is 1.03 ± 0.012.

As to UniProt Q96RR4 and related entries, the NP40-soluble protein abundance amounted to 0.989 ± 0.028.

Turning to GRWD1 (UniProt Q9BQ67), the NP40-soluble protein abundance turned out to be 1.01 ± 0.024.

On to PECR (UniProt Q9BY49), for which the NP40-soluble protein abundance amounted to 1.03 ± 0.054.

For the target YTHDF1 (UniProt Q9BYJ9), the NP40-soluble protein abundance was 1.03 ± 0.029.

For the target UniProt Q99729-3, the NP40-soluble protein abundance was determined as 0.997 ± 0.062.

With UniProt Q99829 and related entries, the NP40-soluble protein abundance is 0.992 ± 0.049.

Regarding SPATA5L1 (UniProt Q9BVQ7), the NP40-soluble protein abundance came to 1.03 ± 0.019.

In the case of DOK1 (UniProt Q99704), the NP40-soluble protein abundance was 1 ± 0.018.

UniProt Q9BX40 and related entries: the NP40-soluble protein abundance was 1.04 ± 0.025.

For the target QTRT1 (UniProt Q9BXR0), the NP40-soluble protein abundance came to 0.991 ± 0.041.

Turning to GNB1L (UniProt Q9BYB4), the NP40-soluble protein abundance turned out to be 0.974 ± 0.029.

As for UniProt Q96ST2 and related entries, the NP40-soluble protein abundance is 1 ± 0.05.

On to KLF16 (UniProt Q9BXK1), for which the NP40-soluble protein abundance was 1.02 ± 0.031.

Consider UniProt Q9BU76 and related entries, for which the NP40-soluble protein abundance was determined as 0.996 ± 0.032.

As for UniProt Q9BSD7, the NP40-soluble protein abundance is 1.14 ± 0.05.

On to PCGF6 (UniProt Q9BYE7), for which the NP40-soluble protein abundance was 1.01 ± 0.037.

In the case of TP53RK (UniProt Q96S44), the NP40-soluble protein abundance amounted to 0.992 ± 0.028.

For the target UniProt Q96TA2 and related entries, the NP40-soluble protein abundance is 0.985 ± 0.0091.

For MRPL32 (UniProt Q9BYC8), the NP40-soluble protein abundance was determined as 1.01 ± 0.045.

For the target UniProt Q9BRX8 and related entries, the NP40-soluble protein abundance came out at 0.981 ± 0.085.

Take UniProt Q9BY77 and related entries: the NP40-soluble protein abundance stood at 0.99 ± 0.068.

ADO (UniProt Q96SZ5): the NP40-soluble protein abundance amounted to 1.06 ± 0.059.

For KATNAL1 (UniProt Q9BW62), the NP40-soluble protein abundance was found to be 0.978 ± 0.018.

For the target UniProt Q9BQS8 and related entries, the NP40-soluble protein abundance is 0.994 ± 0.043.
